Values quoted from earlier work in patent US20050065213A1, “Combretastatin a-4 derivatives having antineoplastic activity” (priority 2001, published 2005).

Tested on: P388 murine leukaemia cell line
Settings: cell growth inhibition; cited from earlier work

SMILES: COc1ccc(/C=C\c2cc(OC)c(OC)c(OC)c2)cc1O [combretastatin A-4, cis-combretastatin A-4]
- IC50: 2.6 nM
